From patent publication US6352715B1, “Transdermal rate-controlled delivery of Huperzine A for treatment of alzheimer's disease” (priority 1998, dated 2002)
At least one structure is not confirmed: it was looked up by name or label, or the drawing left a doubt.

Test: In vitro permeation of Hup A through human cadaver skin from donor solutions (Valia-Chien permeation cell)
Format: in vitro ADME
Conditions: for Intrinsic permeability × 10^3: permeability × skin thickness, values × 10^3
Protocol: Human cadaver skin is employed as model for studying in vitro transdermal permeation of Hup A. The skin specimens of human cadavers, obtained from Ohio Valley Skin & Tissue Center, are mounted between the two half cells of Valia-Chien Permeation Cell. Donor solutions were prepared in isotonic phosphate buffers of pH 5, 6, 7, 7.4, 8 and 9. Concentration of each solution was about 750 ug/ml. Permeation studies were carried out in triplicate at each pH evaluated. The receptor solution used in each case was isotonic phosphate buffer pH 7.4 to simulate physiological conditions.
As stated above human cadaver skin was used in the permeation studies. The skin, obtained frozen, was first thawed and rinsed with in normal saline. The skin was then blotted to remove excess moisture and cut into 2 cm×2 cm pieces. Each skin piece was sandwiched between two microscope glass slides and the thickness was measured using a micrometer. These skin pieces were then mounted between the two half-cell of Valia-Chien permeation cells, with the stratum corneum facing the donor half-cell. The respective donor and receptor solutions were added (3.3 ml each). Samples of 100 ul each were taken from the receptor compartment at various intervals up to 48 hours and were analyzed by HPLC. The volume of receptor compartment was replaced with fresh isotonic phosphate buffer after each sample. At end of 48 hours, a single aliquot was taken from the donor compartment and analyzed after suitable dilution to evaluate the amount of Hup A lost from the donor in 48 hours.
The rate of Hup A permeation is determined based on the general formula for the determination of the rate of permeation of a drug across a membrane as illustrated by the following equation (1): [formula]
Sink conditions were maintained throughout the permeation study i.e. Cd>>Cr. Permeability can be calculated using solubility of Hup A as the saturation concentration in donor cell (Cd). [formula]
Intrinsic permeability was calculated by correlating the permeability with the thickness of the skin:
Wherein P=intrinsic permeability and h=thickness in cm.
Generally speaking, higher the partitioning of the drug into the skin, higher the permeation will be. The pH-dependent partitioning behavior of Hup A is seen to be reflected in its skin permeation profiles. The intrinsic permeability-pH profiles of Hup A (FIG. 5) is similar to that observed for partition coefficient-pH relationship (FIG. 3). Again, a sigmoidal relationship is observed. Further, the amount lost from the donor solution, which corresponds to the sum of the amount permeated and the amount retained in the skin, was also seen to follow similar relationship (FIG. 6).

## C/C=C1\[C@H]2C=C(C)C[C@]1(N)c1ccc(=O)[nH]c1C2 [Hup A, Huperzine A]
Donor pH 5
  Intrinsic permeability × 10^3: 0.0692 (0.001) cm^2/hr
Donor pH 6
  Intrinsic permeability × 10^3: 0.0146 (0.003) cm^2/hr
Donor pH 7
  Intrinsic permeability × 10^3: 0.0657 (0.015) cm^2/hr
Donor pH 7.4
  Intrinsic permeability × 10^3: 0.0741 (0.0310 cm^2/hr
Donor pH 8
  Intrinsic permeability × 10^3: 0.270 (0.017) cm^2/hr
Donor pH 9
  Intrinsic permeability × 10^3: 0.369 (0.098) cm^2/hr
Neutral versus protonated species
  Intrinsic permeability of neutral Hup A relative to its protonated species: at least 5 times
